Patent US20180318392A1
These are yes or no findings as the source states them, for the method shown. In cells and extracts the contact can be indirect. Some results given as binding are weak or reduced against the parent protein; the word gives no strength. Blank lines part the entries; values can stand above or below the substance they belong to.

The chains behind the UniProt entries cited, without tags or fusion partners. Where a name states a change or a piece, a line headed by the entry shows the natural chain unless it says otherwise. Residues count along the entry.
UniProt P07204, residues 19-515: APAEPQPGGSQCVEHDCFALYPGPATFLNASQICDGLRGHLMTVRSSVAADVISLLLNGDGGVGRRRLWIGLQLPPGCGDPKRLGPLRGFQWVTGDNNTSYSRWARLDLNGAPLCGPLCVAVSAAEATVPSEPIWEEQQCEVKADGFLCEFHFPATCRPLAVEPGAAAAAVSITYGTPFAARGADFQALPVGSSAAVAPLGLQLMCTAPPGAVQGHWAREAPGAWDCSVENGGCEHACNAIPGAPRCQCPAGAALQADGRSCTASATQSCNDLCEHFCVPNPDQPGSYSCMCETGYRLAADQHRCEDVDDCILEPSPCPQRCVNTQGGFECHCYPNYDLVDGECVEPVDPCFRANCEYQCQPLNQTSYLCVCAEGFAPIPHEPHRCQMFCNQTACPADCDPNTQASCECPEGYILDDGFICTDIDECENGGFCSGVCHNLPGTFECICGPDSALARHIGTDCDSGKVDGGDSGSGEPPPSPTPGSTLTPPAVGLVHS
UniProt Q02763: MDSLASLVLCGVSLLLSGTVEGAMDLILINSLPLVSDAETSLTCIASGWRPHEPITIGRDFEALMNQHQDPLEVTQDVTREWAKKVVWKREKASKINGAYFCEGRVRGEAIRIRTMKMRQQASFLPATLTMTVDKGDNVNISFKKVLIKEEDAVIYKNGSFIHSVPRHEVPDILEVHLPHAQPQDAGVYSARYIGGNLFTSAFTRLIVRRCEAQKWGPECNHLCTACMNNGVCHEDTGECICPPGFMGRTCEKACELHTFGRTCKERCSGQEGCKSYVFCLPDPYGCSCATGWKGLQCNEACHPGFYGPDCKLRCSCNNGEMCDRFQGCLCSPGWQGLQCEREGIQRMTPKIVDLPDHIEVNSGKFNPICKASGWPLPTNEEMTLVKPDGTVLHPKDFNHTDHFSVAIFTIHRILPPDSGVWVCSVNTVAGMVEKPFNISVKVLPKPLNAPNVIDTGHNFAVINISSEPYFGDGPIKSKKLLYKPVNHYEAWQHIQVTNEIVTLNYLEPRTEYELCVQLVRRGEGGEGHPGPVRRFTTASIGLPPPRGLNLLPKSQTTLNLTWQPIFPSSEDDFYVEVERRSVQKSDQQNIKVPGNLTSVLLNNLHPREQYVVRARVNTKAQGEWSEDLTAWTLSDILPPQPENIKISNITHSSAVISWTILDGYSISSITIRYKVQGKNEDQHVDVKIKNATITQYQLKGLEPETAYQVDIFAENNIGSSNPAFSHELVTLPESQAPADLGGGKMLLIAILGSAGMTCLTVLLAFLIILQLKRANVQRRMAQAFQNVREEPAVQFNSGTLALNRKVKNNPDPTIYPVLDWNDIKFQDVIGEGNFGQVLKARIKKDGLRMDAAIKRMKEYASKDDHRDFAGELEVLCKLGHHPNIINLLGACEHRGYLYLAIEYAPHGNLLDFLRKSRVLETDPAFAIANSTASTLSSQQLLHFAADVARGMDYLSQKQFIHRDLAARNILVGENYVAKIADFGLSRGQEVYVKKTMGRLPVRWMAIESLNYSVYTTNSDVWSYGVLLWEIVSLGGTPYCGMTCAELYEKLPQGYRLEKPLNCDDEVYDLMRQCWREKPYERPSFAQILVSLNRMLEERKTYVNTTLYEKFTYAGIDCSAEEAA
UniProt O15123, residues 19-496: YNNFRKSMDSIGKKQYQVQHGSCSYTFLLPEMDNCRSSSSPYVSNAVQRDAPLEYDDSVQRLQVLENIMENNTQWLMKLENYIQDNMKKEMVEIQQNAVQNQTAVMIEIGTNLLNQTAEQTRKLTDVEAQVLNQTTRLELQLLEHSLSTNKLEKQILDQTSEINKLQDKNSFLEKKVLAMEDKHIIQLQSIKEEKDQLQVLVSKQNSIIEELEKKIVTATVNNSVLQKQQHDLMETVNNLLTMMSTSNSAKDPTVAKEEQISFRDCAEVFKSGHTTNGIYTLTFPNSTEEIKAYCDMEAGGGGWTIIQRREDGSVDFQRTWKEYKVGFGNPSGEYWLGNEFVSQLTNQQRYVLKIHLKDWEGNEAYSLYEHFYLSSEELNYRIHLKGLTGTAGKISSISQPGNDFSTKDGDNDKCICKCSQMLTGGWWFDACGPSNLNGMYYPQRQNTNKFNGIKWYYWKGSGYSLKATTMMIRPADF
UniProt Q15389, residues 16-498: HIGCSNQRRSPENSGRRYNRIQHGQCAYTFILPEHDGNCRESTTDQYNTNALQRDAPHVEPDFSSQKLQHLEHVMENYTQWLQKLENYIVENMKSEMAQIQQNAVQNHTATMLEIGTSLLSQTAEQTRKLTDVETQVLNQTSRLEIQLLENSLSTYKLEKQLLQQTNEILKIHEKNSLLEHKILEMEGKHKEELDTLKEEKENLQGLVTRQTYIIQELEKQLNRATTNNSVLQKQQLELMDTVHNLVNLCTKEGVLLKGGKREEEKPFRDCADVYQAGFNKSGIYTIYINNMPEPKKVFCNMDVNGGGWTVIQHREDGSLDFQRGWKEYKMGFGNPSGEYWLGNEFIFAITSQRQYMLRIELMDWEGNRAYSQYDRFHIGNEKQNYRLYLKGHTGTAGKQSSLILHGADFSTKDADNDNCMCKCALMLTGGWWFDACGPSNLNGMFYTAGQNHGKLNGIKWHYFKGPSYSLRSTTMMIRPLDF

Experiments:
BowAng1 [1] = test: pull-down competition, 2 µM soluble Tie2 against 100 nM soluble TM (competitor), western blot
BowAng2 [2] = test: as above
BowAng1 [3] = test: pull-down competition, western blot (FIG. 1C legend)
BowAng2 [4] = test: as above
[5] = molecular target: soluble extracellular domain of human TM (R&D Systems) (human) (UniProt P07204); test: competition pull-down, 0.25, 0.5 or 1.0 µM Ang2 against 5 nM thrombin (competitor) on 100 nM His-tagged soluble TM, western blot
[6] = molecular target: soluble extracellular domain of human TM (R&D Systems) (human) (UniProt P07204); test: competition pull-down, western blot (FIG. 4B legend)
[7] = molecular target: soluble extracellular domain of human TM (R&D Systems) (human) (UniProt P07204); test: competition pull-down, 0.25, 0.5 or 1.0 µM Ang1 against 5 nM thrombin (competitor) on 100 nM His-tagged soluble TM, western blot
[8] = molecular target: soluble extracellular domain of human TM (R&D Systems) (human) (UniProt P07204); test: competition pull-down, western blot (FIG. 4A legend)

binding (BowAng1 [1]): binds | binding (BowAng2 [2]): binds | binding (BowAng1 [3]): binds | binding (BowAng2 [4]): binds
Substance: soluble extracellular domain of human Tie2 (produced at Regeneron) (from UniProt Q02763 23-748) (receptor)

binding [5]: binds | binding [6]: binds
Substance: native human Ang2 (R&D Systems) (from UniProt O15123 19-496) (ligand)

binding [7]: binds | binding [8]: binds
Substance: native human Ang1 (R&D Systems) (from UniProt Q15389 16-498) (ligand)
